# Measurements published in PubChem BioAssay AID1487 (National Center for Advancing Translational Sciences (NCATS), 2009).
# The list shows a part of the results. The main result of the screen is listed elsewhere. These columns were measured beside it and carry no call. The list favours compounds with an active or inconclusive main result. Words in brackets tell the shape of the fitted curve; partial curves, single points and poor fits give uncertain potencies.
# Assay: qHTS Assay for Modulators of Lamin A Splicing
# Settings: HeLa LMNA splicing GFP/RFP minigene ratio, 48 h
# Procedure, shortened: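 S3 HeLa stable clones carrying a lamin A-EGFP splicing minigene plus DsRed2 were seeded at 600 cells/well in Opti-MEM with 2% FBS, pin-dosed and incubated 48 h at 37°C. Acumen cytometry (488 nm) gave the GFP/RFP total-intensity ratio.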
# [1] = measured here: RFP viability control channel
# [2] = measured here: GFP splicing reporter channel
Compound,AC50 [1],AC50 [2]
Brc1ccc(OCc2nc(-c3ccccn3)n[nH]2)cc1,"22.4 µM [rising, single point]",
CN(C)/N=C/c1cc([N+](=O)[O-])ccc1O,,"0.0501 µM [falling, full curve, poor fit]"
CC1=C(C(N)=O)C(c2ccc(F)cc2)n2nc(-c3ccccc3Cl)nc2N1 (stereo unspecified),"1.41 µM [falling, full curve, poor fit]",
COc1cc(C2Nc3ccccc3C(=O)N2c2ccccc2)ccc1O (stereo unspecified),,"0.316 µM [falling, full curve]"
CC1CCN(S(=O)(=O)c2ccc(NC(=O)Cn3nnc(-c4ccccc4F)n3)cc2)CC1,,"2.24 µM [rising, partial curve]"
CC(=O)Nn1cnc2c(c1=O)C1(CCCCC1)Cc1ccccc1-2,"31.6 µM [rising, single point]",
Nc1nc(SCC(=O)Nc2ccccc2)nc2nc3c(cc12)CCCC3,"35.5 µM [rising, single point]",
COc1ccc(-c2nnc3ccc(SC(C(C)=O)C(C)=O)nn23)cc1OC,"14.1 µM [rising, single point]",
O=C(/C=C/c1ccc(S(=O)(=O)N2CCOCC2)cc1)NC(=S)NCCCn1ccnc1,"14.1 µM [rising, single point]","0.0251 µM [falling, full curve, poor fit]"
Cc1ccc(S(=O)(=O)NC(CC(=O)N2CCc3ccccc32)c2ccco2)cc1 (stereo unspecified),"11.2 µM [rising, single point]","14.1 µM [rising, single point]"
Cc1csc(NC(=O)c2cc3c(s2)CCC3)n1,"14.1 µM [rising, partial curve]",
CC(=O)N(O)CCCCCNC(=O)CCC(=O)N(O)CCCCCNC(=O)CCC(=O)N(O)CCCCCN,"15.8 µM [rising, partial curve, poor fit]","14.1 µM [falling, single point]"
CCCC1O[C@@H]2C[C@H]3[C@@H]4CCC5=CC(=O)C=C[C@]5(C)C4[C@@H](O)C[C@]3(C)[C@]2(C(=O)CO)O1 (stereo partly specified),"0.00224 µM [falling, full curve, poor fit]","5.62 µM [falling, partial curve, poor fit]"
O=C(Cn1ncc(Cl)c(Cl)c1=O)N1CCN(S(=O)(=O)c2ccc3ccccc3c2)CC1,"5.62 µM [falling, single point]","3.16 µM [falling, full curve]"
COc1ccc(CCN=C(N)NS(=O)(=O)c2ccc(OC)cc2)cc1,"11.2 µM [rising, partial curve]","11.2 µM [rising, partial curve]"
Cc1ccc(NC(=O)CN2C(=O)COc3ccc(S(=O)(=O)NC4CCCC4)cc32)cc1Cl,,"35.5 µM [falling, single point]"
COc1cccc(-c2nnc(SC(C(=O)c3c[nH]c4ccccc34)c3ccccc3)n2C)c1 (stereo unspecified),,"35.5 µM [falling, single point]"
COc1cccc(NCCC(=O)c2cccc([N+](=O)[O-])c2)c1,"35.5 µM [falling, partial curve, poor fit]","12.6 µM [falling, partial curve, poor fit]"

Compound,AC50 [1],AC50 [2]
Cc1sc(NC(=O)c2ccco2)nc1-c1ccc2c(c1)CC(C)N2C(=O)C1CC1 (stereo unspecified),,"11.2 µM [falling, partial curve, poor fit]"
O=S(=O)(c1ccc2c(c1)OCCO2)N1CCN(c2cccc(Cl)c2)CC1,"12.6 µM [rising, single point]","10 µM [rising, partial curve]"
Cc1ccnc(N2C(=O)CSC2c2ccc(Cl)cc2)c1 (stereo unspecified),,"0.0282 µM [falling, full curve, poor fit]"
CCOc1ccc(-c2cc3c(=O)n(CC(=O)Nc4cc(F)ccc4C)ccn3n2)cc1,"22.4 µM [falling, single point]","15.8 µM [falling, single point]"
OCC(O)C(O)C(O)C(O)c1nc2ccccc2[nH]1 (stereo unspecified),,"35.5 µM [falling, partial curve]"
N[C@H](CO)C(=O)O,"12.6 µM [rising, partial curve, poor fit]",
COCCN1Cc2cccc(C(=O)Nc3ccc(S(=O)(=O)N4CCOCC4)cc3)c2C1=O,"22.4 µM [falling, single point]","3.98 µM [falling, single point]"
COc1ccc(C(=O)N2CCN(S(=O)(=O)c3ccc(C)cc3C)CC2)cc1OC,"10 µM [rising, partial curve, poor fit]",
O=C(NCc1ccncc1)Nc1cccc([N+](=O)[O-])c1,,"0.398 µM [falling, full curve, poor fit]"
COc1cccc(OC)c1C(=O)Nc1ccc(Cc2ccncc2)cc1,"35.5 µM [rising, single point]",
CC(=O)Nc1ccccc1C(=O)C(=O)Nc1cccc(C(=O)NCC2CCCO2)c1 (stereo unspecified),"1.26 µM [falling, full curve, poor fit]",
COc1ccc(C(=O)NNc2ncnc3c2cnn3-c2ccc(C)c(Cl)c2)cc1,,"0.251 µM [falling, full curve, poor fit]"
COc1cccc(NC(=O)C(Sc2nnc(-c3ccncc3)n2-c2ccc(Cl)cc2)c2ccccc2)c1 (stereo unspecified),,"12.6 µM [rising, single point]"
Cc1ccc(C(=O)O/N=C/c2c(C)nn(C)c2Cl)cc1,,"6.31 µM [rising, partial curve, poor fit]"
COc1ccc(CSC2=CS(=O)(=O)c3ccccc3N2)cc1,"35.5 µM [rising, single point]",
COc1ccc(CNC(=O)CSc2ncnc3ccccc23)cc1OC,"2.82 µM [rising, partial curve, poor fit]",
O=C(Cn1ccn(-c2ccc(F)c(F)c2)c(=O)c1=O)NCCc1ccccc1,"1.26 µM [falling, partial curve, poor fit]","7.08 µM [falling, full curve, poor fit]"

# Exported with bars between the fields: two of the compounds above
Compound | AC50 [1] | AC50 [2]
O=C(NCc1ccncc1)Nc1cccc([N+](=O)[O-])c1 |  | 0.398 µM [falling, full curve, poor fit]
COc1cccc(OC)c1C(=O)Nc1ccc(Cc2ccncc2)cc1 | 35.5 µM [rising, single point] | 
